Data as given in PubChem BioAssay AID652259 (Drosophila RNAi Screening Center, 2013)

- Test: 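Identify new Wingless signalling regulators in fly cells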 (primary screen)
- Cells: Drosophila clone 8 imaginal disc epithelial cells
- Reagent: long dsRNA against Drosophila genes
- Treatment: pathway stimulated by co-transfected Wingless expression plasmid
- Read-out: 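Firefly luciferase from a tcf-site Wingless reporter, measured alongside co-transfected Renilla luciferase that tracks transfection; pathway stimulated by a Wingless plasmid; the firefly-to-Renilla ratio is not deposited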
- Direction: firefly reporter light: higher = more Wg reporter light, before normalisation; Renilla control light: higher = more transfected or surviving cells
- Call rule: 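a knock-down is a candidate when at least two out of four statistical tests show it departing from its plate mean; one test alone signals a weak candidate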
- Calls: active = candidate regulator (raises or lowers reporter); inactive = not a candidate
In all, the deposit lists about 22,000 reagents; this is an unselected part of those that have a named target and a result. Of all reagents, 233 (1.1%) were called active. 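Light values are raw, unnormalised plate reads; the ratio scores behind the reporter calls were not deposited.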 Names joined by + are all predicted targets of the reagent. Not given: the amount of reagent, the time to read-out, the dose of the treatment.

gene,dsRNA,"reporter change call, replicate 1","firefly reporter light, replicate 1","firefly reporter light, replicate 2","Renilla control light, replicate 1","Renilla control light, replicate 2",Outcome
CG18179,DRSC10303,,6533,,2804,,inactive
twy,DRSC10562,,7165,,3213,,inactive
Sfmbt,DRSC02552,,8851,,3025,,inactive
CG9451,DRSC11074,,9083,,3296,,inactive
cos,DRSC07598,,11638,,3856,,inactive
CG11249,DRSC11645,,10288,,5146,,inactive
Mkp + CG34140,DRSC08585,,11889,,3640,,inactive
Acadvl,DRSC07022,,23488,,6544,,inactive
Rh4,DRSC11268,,11376,8.47e5,4481,2.95e5,inactive
levy,DRSC04289,,3098,8353,957,3255,inactive
CR44003 + CG44002,DRSC00523,,8630,,3600,,inactive
CR44003 + CG44002,DRSC00606,,2324,7632,720,1651,inactive
CG15525,DRSC15062,,7432,,3168,,inactive
Dna2,DRSC18254,,2160,5514,777,1380,inactive
olf413,DRSC11543,,2896,,1330,,inactive
olf413,DRSC11679,,20634,7.43e5,6797,3.37e5,inactive
olf413,DRSC11721,,19616,,6329,,inactive
olf413,DRSC11833,,20549,6.58e5,6489,3.02e5,inactive
CG9630,DRSC16527,,3415,,1767,,inactive
Wnt5,DRSC20300,,13660,,6587,,inactive
Rsf1,DRSC03423,,5216,10373,1072,3730,inactive
Rsf1,DRSC21953,,4.82e5,5.26e5,1.91e5,2.22e5,inactive
Gld2,DRSC15863,,30441,,3459,,inactive
Cyp304a1,DRSC16623,,13920,,2083,,inactive
IRSp53,DRSC10891,,7875,,3077,,inactive
Pal2,DRSC04507,,2770,4464,759,2141,inactive
tHMG1,DRSC16181,,44680,,9190,,inactive
CG11444,DRSC17784,,2823,5664,1111,1496,inactive
Tsp96F,DRSC14147,,3196,4609,900,2344,inactive
CG10910,DRSC06007,Wg reporter activity lowered,8400,,2902,,inactive
CG9003,DRSC07317,,8226,,2808,,inactive
lncRNA:CR32660,DRSC22965,,4.85e5,5.63e5,2.00e5,2.13e5,inactive
CG14042 + SP555,DRSC02367,,2852,5856,636,1240,inactive
CG14042 + SP555,DRSC03428,,3904,6486,1094,2550,inactive
P58IPK,DRSC16404,,11554,,2912,,inactive
CG30109 + CG30108,DRSC05674,,15302,,11538,,inactive
CG42694,DRSC03955,,15656,,8290,,inactive
Naam,DRSC16252,,18192,,5394,,inactive

Next part, starting with the last 8 of the part before.
gene,dsRNA,"reporter change call, replicate 1","firefly reporter light, replicate 1","firefly reporter light, replicate 2","Renilla control light, replicate 1","Renilla control light, replicate 2",Outcome
CG9003,DRSC07317,,8226,,2808,,inactive
lncRNA:CR32660,DRSC22965,,4.85e5,5.63e5,2.00e5,2.13e5,inactive
CG14042 + SP555,DRSC02367,,2852,5856,636,1240,inactive
CG14042 + SP555,DRSC03428,,3904,6486,1094,2550,inactive
P58IPK,DRSC16404,,11554,,2912,,inactive
CG30109 + CG30108,DRSC05674,,15302,,11538,,inactive
CG42694,DRSC03955,,15656,,8290,,inactive
Naam,DRSC16252,,18192,,5394,,inactive
CG4119,DRSC17741,,3040,11704,1376,3121,inactive
CheA46a,DRSC05184,,15277,,6612,,inactive
Argp,DRSC16510,,20480,,4714,,inactive
CG5172,DRSC19936,,31236,,10960,,inactive
TTLL1B,DRSC08594,,820,7945,745,2832,inactive
SCCRO4,DRSC10671,,15392,,6624,,inactive
XRCC1,DRSC18729,,2311,7019,888,2304,inactive
hig,DRSC07628,,21816,,4666,,inactive
hig,DRSC22827,,5.39e5,5.54e5,2.00e5,2.46e5,inactive
hig,DRSC22899,,6.73e5,5.26e5,2.19e5,1.44e5,inactive
CG11837,DRSC14397,,2123,6653,1329,666,inactive
CG14502,DRSC06473,,15160,,4069,,inactive
NimB5,DRSC01885,,2352,7088,1281,3330,inactive
CG12075,DRSC17801,,2147,5205,808,2022,inactive
DIP-beta,DRSC20489,,15796,,9184,,inactive
DIP-beta,DRSC20490,,26172,,15264,,inactive
DIP-beta,DRSC20505,,38966,,1927,,inactive
lncRNA:sphinx + ATPsynF,DRSC17191,,4887,,1959,,inactive
ZAP3,DRSC17852,,2080,5813,646,1421,inactive
ZAP3,DRSC17853,,22231,,10541,,inactive
ZAP3,DRSC18249,,20672,,10516,,inactive
Acsx3,DRSC14309,,1704,4545,972,1484,inactive
Faf2,DRSC03325,,9370,,2262,,inactive
CG6753,DRSC16108,,22560,,6000,,inactive
pav,DRSC08730,,6480,,2658,,inactive
Klp64D,DRSC11204,,2064,9747,1488,4372,inactive
Clc,DRSC11116,,3845,,1275,,inactive
CG6678,DRSC16092,,3444,5024,1473,2019,inactive
Tsp42Eq,DRSC06180,,2216,6176,662,2509,inactive
wisp,DRSC19703,,2796,8706,720,2433,inactive
CG10366,DRSC02046,,12229,,2432,,inactive
CG10650,DRSC02085,,9404,,1578,,inactive
ND-13A,DRSC03110,,3712,9366,1523,3718,inactive
tey,DRSC11042,,21136,,6464,,inactive
tey,DRSC21709,,4.14e5,4.52e5,1.66e5,1.82e5,inactive
